Measured values from publication PMC5748837.
Results are given in words; binding and its absence hold for the method and conditions named. Where a sequence is shown, tags or fusion partners need not be part of it.

Target: T1, C9ORF80, His-tagged (human), Q9NRY2
T1 chain: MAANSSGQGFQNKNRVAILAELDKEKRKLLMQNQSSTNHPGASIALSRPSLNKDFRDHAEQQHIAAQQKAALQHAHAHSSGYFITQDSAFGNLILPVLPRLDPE
Experiment: SEC-MALS; C9ORF80 500 ul at 4.2 mg/ml on SEC 70 column (Bio-Rad) in buffer D (25 mM Tris pH 8.0, 0.5 M NaCl, 100 uM Tween 20, 10% glycerol); both purified
Conditions: remark: other sources report otherwise

binding: no binding (tested: 4.2 mg/ml)
B1: C9ORF80, His-tagged, Q9NRY2 1-104 (protein)
chain: T1 chain
